Data on two molecules can be found in article PMC3582507.

These are yes or no findings as the source states them, for the method shown. In cells and extracts the contact can be indirect. A yes stands for co-enrichment or nearness to the bait. Other partners may have been found.

For the experiment, the target named is T1, Gps1-TAP (S. cerevisiae) (UniProt Q99299).
T1 sequence: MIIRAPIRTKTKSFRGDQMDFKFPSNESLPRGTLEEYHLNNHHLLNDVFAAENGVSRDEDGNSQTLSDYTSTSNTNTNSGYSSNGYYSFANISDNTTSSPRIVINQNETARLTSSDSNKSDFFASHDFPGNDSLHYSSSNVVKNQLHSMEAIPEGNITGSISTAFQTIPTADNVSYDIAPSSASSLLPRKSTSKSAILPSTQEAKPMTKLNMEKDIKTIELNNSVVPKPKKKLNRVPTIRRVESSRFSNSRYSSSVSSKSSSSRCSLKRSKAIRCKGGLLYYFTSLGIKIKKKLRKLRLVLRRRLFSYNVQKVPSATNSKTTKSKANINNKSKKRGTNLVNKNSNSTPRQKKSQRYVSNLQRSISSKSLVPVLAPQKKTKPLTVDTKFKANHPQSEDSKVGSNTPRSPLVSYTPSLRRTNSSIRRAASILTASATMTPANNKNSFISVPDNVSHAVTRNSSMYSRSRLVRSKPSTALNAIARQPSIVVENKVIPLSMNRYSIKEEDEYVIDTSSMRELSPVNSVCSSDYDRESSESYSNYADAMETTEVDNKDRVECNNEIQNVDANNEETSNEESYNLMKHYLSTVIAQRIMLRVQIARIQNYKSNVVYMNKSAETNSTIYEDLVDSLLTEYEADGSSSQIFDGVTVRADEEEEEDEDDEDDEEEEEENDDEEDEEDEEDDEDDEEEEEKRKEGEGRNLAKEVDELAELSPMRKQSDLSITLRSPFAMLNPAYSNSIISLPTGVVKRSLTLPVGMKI
The experiment can be described thus: affinity purification with mass spectrometry; large-scale TAP purification of Gps1-TAP from 1.6-l yeast culture with Dynabeads coupled to rabbit IgG; interacting proteins identified by mass spectrometry.

B1: Nba1 (protein, UniProt Q08229 1-501)
chain: MSEEREENGISRATLNTQRLSAMIDSLNNEKDDRLFPSPTTTRTMITEEKADQSDVFKPPSRLLRSPAGDVSLPPGDNRSSMISNYSGIIQEGVEVSYVVKNRQQTQERRTSKDSNSLYSLKEPVSKNELPSLPMLPSEATLTKHLSDNQSTKSNTNADEIVIKPVTNAKPVGRFNSNTSKKVEGRGSLKLLSSPLRQEKVMRSSIGSGNLASESGSSTYNTKFHQSIQEQLEEEEEGNVSDKLSIVSSVIPELYTTTNEAPKAINPIRSETNDYNPTIPPRSKDRPRSRLFIEEGDGEGDLLTEEILPTPVQPGGHYKNSSQISTVSEQKSESYYSAATSMPPEEETYLTRPLPSTPNEDSRVTSNLKRDDTLKAIHDRANHTSTSTNKQDDDMYEDIIEETPKKTKLKKDTKKKLNKKKSVKELRSFDIDTLNQLLSVTKGTLIGSEFAQLGMKIEEKRALERLVDSLSRLTADMVLDPDRYEEGLKRLDKATKALEGF
Consider B1, for which the binding result was “binds”.

B2: Nis1 (protein, UniProt P53939 1-407)
chain: METYETSIGTQSYPPTLFPPPLGTGGFTTSGYIHALVDSTSNSNSNSNTNSNTNSNTNSNSDTKIPIVQISDDSHITHDSFKPYMEYHDASHLRNRNISKADQVESTEVMEQFTQWSNYKMRSRSPTINAKPIRHTSQRRTDFTSKNELSKFSKNHNFIFHKGFLKRQHSIRREDRQAKVRSRFRSKKELTSVLNYIELEQMDIANVLASQPVNLHAIRNLTSRDPAVTPIPFLRSQMYATSSRPPYLRNRSISRKLPKSQPGSLPTTMPATATKTIKQNSTTPTTRSVYNKNVGRSNTSPSVLYHPKRRGKLNTKSHARKEQLLLELWREYLMLVITQRTQLRLTLLCSPGSASNESSVCSSNASDLDMSLLSTPSSLFQMAGETKSNPIIIPDSQDDSILSSDPF
As to B2, the binding result is reported as “binds”.
